Some of the results follow.
What follows are targets tested with C#Cc1cccc(Nc2ncnc3cc(OCCOC)c(OCCOC)cc23)c1 [erlotinib] (assay: log2 fold change, soluble protein after heating vs DMSO (PISA); higher = thermal stabilisation; K562 lysate, 10 uM; active = over 0.2 and 3.5 SD of the protein, either way, in both replicates (recomputed)).
Summary of the method: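 Dounce homogenisation of K562 pellets in PBS pH 7.4 with 1 mM MgCl2 produced a crude extract, used at 1 mg/mL protein. Exposure to 10 μM compound lasted 30 min, and aliquots were then heated for 3 min across 48°C-58°C, pooled and brought to 0.5% NP-40 at 4°C. The supernatant after 21,000xg for 90 min was quantified by TMTpro 16plex LC-MS/MS with channel sums equalised. Duplicate values are given as log-two fold change in thermal stability relative to solvent controls.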

Protein sequences, listed by entry. Tags and fused reporters are not part of them. Lines headed by an entry give the natural chain unless they say otherwise; changes in a name come on top.
UniProt Q9P0L2: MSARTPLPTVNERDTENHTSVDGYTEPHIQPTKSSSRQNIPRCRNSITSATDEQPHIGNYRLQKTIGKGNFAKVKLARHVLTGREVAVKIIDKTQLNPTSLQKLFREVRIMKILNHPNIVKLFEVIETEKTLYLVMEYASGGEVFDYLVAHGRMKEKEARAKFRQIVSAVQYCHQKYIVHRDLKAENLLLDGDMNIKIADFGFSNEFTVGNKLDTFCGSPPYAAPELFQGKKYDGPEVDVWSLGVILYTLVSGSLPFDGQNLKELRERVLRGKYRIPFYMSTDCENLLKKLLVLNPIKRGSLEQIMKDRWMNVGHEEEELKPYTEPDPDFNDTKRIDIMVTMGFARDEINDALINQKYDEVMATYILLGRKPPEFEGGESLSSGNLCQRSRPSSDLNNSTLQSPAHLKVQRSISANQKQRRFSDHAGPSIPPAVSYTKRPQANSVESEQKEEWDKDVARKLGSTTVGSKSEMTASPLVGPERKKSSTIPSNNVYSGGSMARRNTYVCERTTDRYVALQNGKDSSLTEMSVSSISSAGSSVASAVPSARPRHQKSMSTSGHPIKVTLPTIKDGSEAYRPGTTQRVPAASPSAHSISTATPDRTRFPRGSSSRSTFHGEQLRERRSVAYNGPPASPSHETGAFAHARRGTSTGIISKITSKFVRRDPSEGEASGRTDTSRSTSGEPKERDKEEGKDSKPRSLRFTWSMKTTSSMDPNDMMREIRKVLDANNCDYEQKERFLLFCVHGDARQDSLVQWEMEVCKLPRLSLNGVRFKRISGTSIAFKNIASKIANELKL
UniProt Q9Y383: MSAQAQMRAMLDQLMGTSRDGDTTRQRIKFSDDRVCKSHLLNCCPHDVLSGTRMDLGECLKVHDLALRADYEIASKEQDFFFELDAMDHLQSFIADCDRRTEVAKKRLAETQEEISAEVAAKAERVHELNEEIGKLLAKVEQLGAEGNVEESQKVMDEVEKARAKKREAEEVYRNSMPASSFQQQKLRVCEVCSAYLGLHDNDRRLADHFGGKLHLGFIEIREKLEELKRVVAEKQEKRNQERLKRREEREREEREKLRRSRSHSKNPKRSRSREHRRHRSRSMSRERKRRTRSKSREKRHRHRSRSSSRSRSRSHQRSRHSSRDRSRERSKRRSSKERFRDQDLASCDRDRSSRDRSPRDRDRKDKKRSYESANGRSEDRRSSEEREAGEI
UniProt P27816: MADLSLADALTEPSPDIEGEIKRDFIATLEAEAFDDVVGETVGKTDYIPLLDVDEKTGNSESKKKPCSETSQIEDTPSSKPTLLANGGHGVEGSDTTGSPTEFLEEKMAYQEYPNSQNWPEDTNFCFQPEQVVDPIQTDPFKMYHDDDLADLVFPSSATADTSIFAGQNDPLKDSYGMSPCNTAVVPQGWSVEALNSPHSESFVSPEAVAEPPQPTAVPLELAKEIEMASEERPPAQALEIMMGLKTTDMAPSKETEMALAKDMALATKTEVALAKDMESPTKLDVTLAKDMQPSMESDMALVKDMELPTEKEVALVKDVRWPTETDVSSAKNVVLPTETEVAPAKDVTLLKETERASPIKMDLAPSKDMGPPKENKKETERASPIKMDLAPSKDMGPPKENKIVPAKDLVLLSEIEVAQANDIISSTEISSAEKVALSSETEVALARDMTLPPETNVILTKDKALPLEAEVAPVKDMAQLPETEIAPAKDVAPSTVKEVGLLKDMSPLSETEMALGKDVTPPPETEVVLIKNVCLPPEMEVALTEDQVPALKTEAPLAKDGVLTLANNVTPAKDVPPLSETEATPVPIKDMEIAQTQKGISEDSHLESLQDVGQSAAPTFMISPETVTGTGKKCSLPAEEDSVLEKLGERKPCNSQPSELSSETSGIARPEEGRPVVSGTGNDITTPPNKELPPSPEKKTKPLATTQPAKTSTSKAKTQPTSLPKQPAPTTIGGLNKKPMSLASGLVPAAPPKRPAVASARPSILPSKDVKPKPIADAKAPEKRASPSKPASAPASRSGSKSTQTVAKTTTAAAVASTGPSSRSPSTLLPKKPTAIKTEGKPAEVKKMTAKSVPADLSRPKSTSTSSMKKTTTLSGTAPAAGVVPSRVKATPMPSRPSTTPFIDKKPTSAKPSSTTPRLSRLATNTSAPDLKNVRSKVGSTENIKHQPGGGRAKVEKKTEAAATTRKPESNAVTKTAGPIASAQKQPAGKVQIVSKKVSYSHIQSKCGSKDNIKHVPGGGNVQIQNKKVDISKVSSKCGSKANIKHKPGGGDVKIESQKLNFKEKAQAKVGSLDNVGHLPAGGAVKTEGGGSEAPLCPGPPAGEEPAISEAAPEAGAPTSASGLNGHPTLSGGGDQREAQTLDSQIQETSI
UniProt Q8IZL2, whole entry, looked up: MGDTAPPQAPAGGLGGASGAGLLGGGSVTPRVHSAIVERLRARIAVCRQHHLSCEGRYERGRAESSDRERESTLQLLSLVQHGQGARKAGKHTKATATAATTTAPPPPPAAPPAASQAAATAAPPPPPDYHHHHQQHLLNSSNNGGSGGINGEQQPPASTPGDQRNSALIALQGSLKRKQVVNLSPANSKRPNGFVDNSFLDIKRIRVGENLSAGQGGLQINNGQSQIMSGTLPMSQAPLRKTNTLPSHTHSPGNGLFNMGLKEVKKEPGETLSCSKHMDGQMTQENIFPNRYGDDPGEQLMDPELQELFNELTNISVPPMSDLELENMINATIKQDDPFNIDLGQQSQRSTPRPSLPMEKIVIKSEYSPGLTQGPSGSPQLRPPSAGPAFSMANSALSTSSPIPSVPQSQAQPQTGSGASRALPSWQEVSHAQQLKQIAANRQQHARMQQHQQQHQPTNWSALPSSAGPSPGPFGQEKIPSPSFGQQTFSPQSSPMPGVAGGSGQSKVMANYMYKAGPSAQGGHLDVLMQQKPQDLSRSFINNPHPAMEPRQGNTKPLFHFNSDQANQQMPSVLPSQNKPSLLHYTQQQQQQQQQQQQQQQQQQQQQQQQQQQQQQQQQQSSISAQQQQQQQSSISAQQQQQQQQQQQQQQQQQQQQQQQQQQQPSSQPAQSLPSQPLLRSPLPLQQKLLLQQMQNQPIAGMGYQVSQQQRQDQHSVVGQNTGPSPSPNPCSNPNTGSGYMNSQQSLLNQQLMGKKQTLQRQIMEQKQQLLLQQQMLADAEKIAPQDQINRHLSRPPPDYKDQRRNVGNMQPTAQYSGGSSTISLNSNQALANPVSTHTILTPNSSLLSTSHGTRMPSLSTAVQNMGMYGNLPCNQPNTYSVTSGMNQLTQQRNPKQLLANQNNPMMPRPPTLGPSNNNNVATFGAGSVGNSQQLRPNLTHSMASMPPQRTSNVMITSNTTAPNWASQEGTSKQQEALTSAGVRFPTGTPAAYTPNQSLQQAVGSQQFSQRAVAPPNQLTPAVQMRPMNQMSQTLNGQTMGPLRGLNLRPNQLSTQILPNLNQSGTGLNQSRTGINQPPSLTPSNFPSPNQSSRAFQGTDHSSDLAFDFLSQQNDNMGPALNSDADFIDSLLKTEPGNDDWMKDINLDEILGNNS
UniProt P43366: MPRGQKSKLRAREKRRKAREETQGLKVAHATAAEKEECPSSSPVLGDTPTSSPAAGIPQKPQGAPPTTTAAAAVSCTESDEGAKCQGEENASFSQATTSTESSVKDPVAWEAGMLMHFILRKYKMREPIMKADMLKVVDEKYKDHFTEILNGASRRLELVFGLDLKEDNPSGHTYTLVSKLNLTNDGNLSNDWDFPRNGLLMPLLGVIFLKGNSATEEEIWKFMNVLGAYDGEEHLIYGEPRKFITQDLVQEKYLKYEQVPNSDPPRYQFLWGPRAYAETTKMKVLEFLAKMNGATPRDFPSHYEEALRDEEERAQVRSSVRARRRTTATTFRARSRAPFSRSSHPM
UniProt O43318: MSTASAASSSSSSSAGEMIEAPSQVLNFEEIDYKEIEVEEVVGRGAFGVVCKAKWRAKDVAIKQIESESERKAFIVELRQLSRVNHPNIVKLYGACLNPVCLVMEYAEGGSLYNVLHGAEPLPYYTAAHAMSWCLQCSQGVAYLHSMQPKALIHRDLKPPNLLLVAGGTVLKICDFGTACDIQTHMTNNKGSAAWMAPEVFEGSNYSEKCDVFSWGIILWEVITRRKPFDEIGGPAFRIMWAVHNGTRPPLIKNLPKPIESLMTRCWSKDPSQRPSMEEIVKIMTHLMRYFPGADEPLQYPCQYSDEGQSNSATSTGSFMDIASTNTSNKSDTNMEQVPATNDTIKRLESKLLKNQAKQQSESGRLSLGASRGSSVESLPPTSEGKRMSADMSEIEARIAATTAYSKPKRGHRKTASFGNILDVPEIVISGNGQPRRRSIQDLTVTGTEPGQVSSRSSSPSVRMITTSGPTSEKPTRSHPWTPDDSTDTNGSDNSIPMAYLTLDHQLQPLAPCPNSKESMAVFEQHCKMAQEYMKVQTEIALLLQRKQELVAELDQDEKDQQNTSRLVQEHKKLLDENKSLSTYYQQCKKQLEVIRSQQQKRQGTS
UniProt P29966: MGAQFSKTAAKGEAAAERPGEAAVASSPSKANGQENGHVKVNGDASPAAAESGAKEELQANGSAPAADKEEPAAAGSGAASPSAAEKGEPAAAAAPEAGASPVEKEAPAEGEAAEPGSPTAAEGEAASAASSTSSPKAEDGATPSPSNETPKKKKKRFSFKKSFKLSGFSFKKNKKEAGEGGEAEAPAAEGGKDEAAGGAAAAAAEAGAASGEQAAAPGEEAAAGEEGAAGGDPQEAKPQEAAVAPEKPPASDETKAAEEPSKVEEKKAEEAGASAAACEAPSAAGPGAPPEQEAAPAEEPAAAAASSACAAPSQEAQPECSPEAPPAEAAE
UniProt Q8IW41: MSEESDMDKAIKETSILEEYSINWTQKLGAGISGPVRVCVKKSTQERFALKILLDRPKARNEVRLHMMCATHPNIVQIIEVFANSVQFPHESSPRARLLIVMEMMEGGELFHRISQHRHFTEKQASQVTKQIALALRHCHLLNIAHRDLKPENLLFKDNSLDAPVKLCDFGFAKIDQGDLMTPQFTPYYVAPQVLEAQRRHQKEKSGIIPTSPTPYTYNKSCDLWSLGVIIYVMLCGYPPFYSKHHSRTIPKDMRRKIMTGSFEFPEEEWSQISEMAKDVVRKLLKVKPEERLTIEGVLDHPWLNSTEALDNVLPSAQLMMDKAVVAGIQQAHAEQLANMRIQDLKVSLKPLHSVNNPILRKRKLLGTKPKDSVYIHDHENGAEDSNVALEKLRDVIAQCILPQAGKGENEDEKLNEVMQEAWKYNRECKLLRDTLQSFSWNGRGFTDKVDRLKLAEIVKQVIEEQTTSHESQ
UniProt Q9H0U3: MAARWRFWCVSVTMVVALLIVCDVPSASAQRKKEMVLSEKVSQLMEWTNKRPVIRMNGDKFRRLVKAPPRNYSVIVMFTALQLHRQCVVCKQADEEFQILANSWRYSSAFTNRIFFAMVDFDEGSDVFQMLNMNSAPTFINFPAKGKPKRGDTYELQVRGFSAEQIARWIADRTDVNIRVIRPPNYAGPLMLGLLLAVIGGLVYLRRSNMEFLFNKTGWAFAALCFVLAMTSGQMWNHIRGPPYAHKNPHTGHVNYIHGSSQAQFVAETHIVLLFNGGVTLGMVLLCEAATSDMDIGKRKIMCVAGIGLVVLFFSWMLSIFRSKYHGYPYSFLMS
UniProt Q96GA3: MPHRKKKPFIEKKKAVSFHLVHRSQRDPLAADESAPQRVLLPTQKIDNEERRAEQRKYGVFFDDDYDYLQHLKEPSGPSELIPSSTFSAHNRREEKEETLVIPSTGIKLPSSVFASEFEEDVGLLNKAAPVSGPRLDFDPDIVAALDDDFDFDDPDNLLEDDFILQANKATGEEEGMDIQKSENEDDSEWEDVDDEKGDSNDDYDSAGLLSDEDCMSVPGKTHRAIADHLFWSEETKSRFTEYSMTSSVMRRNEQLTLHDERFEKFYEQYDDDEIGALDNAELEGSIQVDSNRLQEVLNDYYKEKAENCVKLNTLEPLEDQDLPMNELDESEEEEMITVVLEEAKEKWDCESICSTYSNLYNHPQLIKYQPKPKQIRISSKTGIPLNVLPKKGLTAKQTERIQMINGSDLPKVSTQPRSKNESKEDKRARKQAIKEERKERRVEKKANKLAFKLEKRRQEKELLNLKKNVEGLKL
UniProt P45983: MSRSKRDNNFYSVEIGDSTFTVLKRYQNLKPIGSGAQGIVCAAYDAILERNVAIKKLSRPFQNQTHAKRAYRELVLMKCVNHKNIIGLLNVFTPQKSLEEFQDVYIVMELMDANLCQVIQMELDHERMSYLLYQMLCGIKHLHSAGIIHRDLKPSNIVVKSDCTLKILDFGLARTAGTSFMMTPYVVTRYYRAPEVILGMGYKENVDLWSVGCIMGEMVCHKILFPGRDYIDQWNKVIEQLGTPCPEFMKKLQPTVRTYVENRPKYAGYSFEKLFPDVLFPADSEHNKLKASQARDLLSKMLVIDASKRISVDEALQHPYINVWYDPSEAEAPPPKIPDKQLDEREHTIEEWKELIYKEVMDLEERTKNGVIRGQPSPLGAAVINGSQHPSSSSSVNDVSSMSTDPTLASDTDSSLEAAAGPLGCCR

log2 fold change, inactive:
MARK1 (UniProt Q9P0L2) 0.105
LUC7L2 (UniProt Q9Y383) -0.003
MAP2K1 (UniProt Q02750) 0.016
MAP4 isoform 5 (UniProt P27816) -0.086
MAML2 (UniProt Q8IZL2) 0.051
MAGEB1 (UniProt P43366) 0.036
MAP3K7 (UniProt O43318) 0.004
MAP7D3 (UniProt Q8IWC1) 0.069
MARCKS (UniProt P29966) -0.082
MAPKAPK3 (UniProt Q16644) -0.007
LTF (UniProt P02788) 0.143
MAPKAPK5 (UniProt Q8IW41) -0.058
LUC7L3 (UniProt O95232) 0.017
MAGT1 (UniProt Q9H0U3) -0.015
LTV1 (UniProt Q96GA3) -0.004
LYZ (UniProt P61626) -0.188
MAPK8 isoform 3 (UniProt P45983) 0.026

For reference, some entries already given.
log2 fold change, inactive:
MAGEB1 (UniProt P43366) 0.036
MAP3K7 (UniProt O43318) 0.004

Reference: the supplement of paper PMC10849652
